# The other results are listed elsewhere or left out.
# B1: C7A (Sus scrofa) (peptide)
# chain: KILRGVCKKIMRTFLRRISKKILTGKK
# Tests used:
# Test in all cases: glycan array binding signal (z-score within array); higher = stronger binding
# Details in all cases: glycan notation: IUPAC condensed, linker removed; mutation: D21K
# [1] = target: Neu5Ac(a2-3)Gal(b1-4)GlcNAc(b1-6)GalNAc
# How it was run: (§1)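 The Consortium for Functional Glycomics database supplied 3228 glycan arrays, of which those lacking an available protein sequence were dropped. The binding signal, a within-array Z-score, was averaged across arrays of the same protein sequence and across linkers. Negative scores can be read as non-binding.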
# [2] = target: Neu5Ac(a2-3)Gal(b1-4)GlcNAc(b1-6)[Gal(b1-3)]GalNAc
# How it was run: as §1
# [3] = target: Neu5Ac(a2-3)Gal(b1-4)GlcNAc(b1-6)[Neu5Ac(a2-3)Gal(b1-3)]GalNAc
# How it was run: as §1
# [4] = target: Neu5Ac(a2-3)Gal(b1-4)GlcNAc6S
# How it was run: as §1
# [5] = target: Neu5Ac(a2-3)Gal(b1-4)[Fuc(a1-3)]GlcNAc
# How it was run: as §1
# [6] = target: Neu5Ac(a2-3)Gal(b1-4)[Fuc(a1-3)]GlcNAc(b1-2)Man
# How it was run: as §1
# [7] = target: Neu5Ac(a2-3)Gal(b1-4)[Fuc(a1-3)]GlcNAc(b1-3)Gal
# How it was run: as §1
# [8] = target: Neu5Ac(a2-3)Gal(b1-4)[Fuc(a1-3)]GlcNAc(b1-3)Gal(b1-4)GlcNAc
# How it was run: as §1
# [9] = target: Neu5Ac(a2-3)Gal(b1-4)[Fuc(a1-3)]GlcNAc(b1-3)Gal(b1-4)[Fuc(a1-3)]GlcNAc(b1-3)Gal(b1-4)[Fuc(a1-3)]GlcNAc
# How it was run: as §1
# [10] = target: Neu5Ac(a2-3)Gal(b1-4)[Fuc(a1-3)]GlcNAc(b1-3)GalNAc
# How it was run: as §1
# [11] = target: Neu5Ac(a2-3)Gal(b1-4)[Fuc(a1-3)]GlcNAc(b1-6)[Gal(b1-3)]GalNAc
# How it was run: as §1
# [12] = target: Neu5Ac(a2-3)Gal(b1-4)[Fuc(a1-3)]GlcNAc(b1-6)[Neu5Ac(a2-3)Gal(b1-3)]GalNAc
# How it was run: as §1
# [13] = target: Neu5Ac(a2-3)Gal(b1-4)[Fuc(a1-3)]GlcNAc6S
# How it was run: as §1
# [14] = target: Neu5Ac(a2-3)Gal6S(b1-4)GlcNAc
# How it was run: as §1
# [15] = target: Neu5Ac(a2-3)Gal6S(b1-4)[Fuc(a1-3)]GlcNAc
# How it was run: as §1
# [16] = target: Neu5Ac(a2-3)GalNAc
# How it was run: as §1
# [17] = target: Neu5Ac(a2-3)GalNAc(b1-4)GlcNAc
# How it was run: as §1
# [18] = target: Neu5Ac(a2-3)[GalNAc(b1-4)]Gal(b1-4)Glc
# How it was run: as §1
# [19] = target: Neu5Ac(a2-3)[GalNAc(b1-4)]Gal(b1-4)GlcNAc
# How it was run: as §1
# [20] = target: Neu5Ac(a2-3)[GalNAc(b1-4)]Gal(b1-4)GlcNAc(b1-3)GalNAc
# How it was run: as §1
# [21] = target: Neu5Ac(a2-3)[Neu5Ac(a2-6)]GalNAc
# How it was run: as §1
# [22] = target: Neu5Ac(a2-6)Gal
# How it was run: as §1
# [23] = target: Neu5Ac(a2-6)Gal(b1-3)GlcNAc(b1-3)[Gal(b1-4)GlcNAc(b1-6)]Gal(b1-4)Glc
# How it was run: as §1
# [24] = target: Neu5Ac(a2-6)Gal(b1-4)Glc
# How it was run: as §1
# [25] = target: Neu5Ac(a2-6)Gal(b1-4)GlcNAc
# How it was run: as §1
# [26] = target: Neu5Ac(a2-6)Gal(b1-4)GlcNAc(b1-2)Man
# How it was run: as §1
# [27] = target: Neu5Ac(a2-6)Gal(b1-4)GlcNAc(b1-2)Man(a1-3)Man(b1-4)GlcNAc(b1-4)GlcNAc
# How it was run: as §1
# [28] = target: Neu5Ac(a2-6)Gal(b1-4)GlcNAc(b1-2)Man(a1-3)[Gal(b1-4)GlcNAc(b1-2)Man(a1-6)]Man(b1-4)GlcNAc(b1-4)GlcNAc
# How it was run: as §1
# [29] = target: Neu5Ac(a2-6)Gal(b1-4)GlcNAc(b1-2)Man(a1-3)[GlcNAc(b1-2)Man(a1-6)]Man(b1-4)GlcNAc(b1-4)GlcNAc
# How it was run: as §1
# [30] = target: Neu5Ac(a2-6)Gal(b1-4)GlcNAc(b1-2)Man(a1-3)[GlcNAc(b1-4)][Neu5Ac(a2-6)Gal(b1-4)GlcNAc(b1-2)Man(a1-6)]Man(b1-4)GlcNAc(b1-4)GlcNAc
# How it was run: as §1
# [31] = target: Neu5Ac(a2-6)Gal(b1-4)GlcNAc(b1-2)Man(a1-3)[Man(a1-6)]Man(b1-4)GlcNAc(b1-4)GlcNAc
# How it was run: as §1
# [32] = target: Neu5Ac(a2-6)Gal(b1-4)GlcNAc(b1-2)Man(a1-3)[Neu5Ac(a2-3)Gal(b1-4)GlcNAc(b1-2)Man(a1-6)]Man(b1-4)GlcNAc(b1-4)GlcNAc
# How it was run: as §1
# [33] = target: Neu5Ac(a2-6)Gal(b1-4)GlcNAc(b1-2)Man(a1-3)[Neu5Ac(a2-6)Gal(b1-4)GlcNAc(b1-2)Man(a1-6)]Man(b1-4)GlcNAc(b1-4)GlcNAc
# How it was run: as §1
# [34] = target: Neu5Ac(a2-6)Gal(b1-4)GlcNAc(b1-2)Man(a1-3)[Neu5Ac(a2-6)Gal(b1-4)GlcNAc(b1-2)Man(a1-6)]Man(b1-4)GlcNAc(b1-4)[Fuc(a1-6)]GlcNAc
# How it was run: as §1
# [35] = target: Neu5Ac(a2-6)Gal(b1-4)GlcNAc(b1-2)Man(a1-6)Man(b1-4)GlcNAc(b1-4)GlcNAc
# How it was run: as §1
# [36] = target: Neu5Ac(a2-6)Gal(b1-4)GlcNAc(b1-2)Man(a1-6)[Gal(b1-4)GlcNAc(b1-2)Man(a1-3)]Man(b1-4)GlcNAc(b1-4)GlcNAc
# How it was run: as §1
# [37] = target: Neu5Ac(a2-6)Gal(b1-4)GlcNAc(b1-2)Man(a1-6)[GlcNAc(b1-2)Man(a1-3)]Man(b1-4)GlcNAc(b1-4)GlcNAc
# How it was run: as §1
# [38] = target: Neu5Ac(a2-6)Gal(b1-4)GlcNAc(b1-2)Man(a1-6)[Man(a1-3)]Man(b1-4)GlcNAc(b1-4)GlcNAc
# How it was run: as §1
# [39] = target: Neu5Ac(a2-6)Gal(b1-4)GlcNAc(b1-2)[Neu5Ac(a2-6)Gal(b1-4)GlcNAc(b1-4)]Man(a1-3)[GlcNAc(b1-4)][Neu5Ac(a2-6)Gal(b1-4)GlcNAc(b1-2)[Neu5Ac(a2-6)Gal(b1-4)GlcNAc(b1-6)]Man(a1-6)]Man(b1-4)GlcNAc(b1-4)GlcNAc
# How it was run: as §1
# [40] = target: Neu5Ac(a2-6)Gal(b1-4)GlcNAc(b1-2)[Neu5Ac(a2-6)Gal(b1-4)GlcNAc(b1-4)]Man(a1-3)[GlcNAc(b1-4)][Neu5Ac(a2-6)Gal(b1-4)GlcNAc(b1-4)Man(a1-6)]Man(b1-4)GlcNAc(b1-4)GlcNAc
# How it was run: as §1
# [41] = target: Neu5Ac(a2-6)Gal(b1-4)GlcNAc(b1-2)[Neu5Ac(a2-6)Gal(b1-4)GlcNAc(b1-6)]Man(a1-6)[Neu5Ac(a2-6)Gal(b1-4)GlcNAc(b1-2)Man(a1-3)][GlcNAc(b1-4)]Man(b1-4)GlcNAc(b1-4)GlcNAc
# How it was run: as §1
# [42] = target: Neu5Ac(a2-6)Gal(b1-4)GlcNAc(b1-3)Gal(b1-3)GlcNAc
# How it was run: as §1
# [43] = target: Neu5Ac(a2-6)Gal(b1-4)GlcNAc(b1-3)Gal(b1-4)GlcNAc
# How it was run: as §1
# [44] = target: Neu5Ac(a2-6)Gal(b1-4)GlcNAc(b1-3)Gal(b1-4)GlcNAc(b1-2)Man(a1-3)[Neu5Ac(a2-6)Gal(b1-4)GlcNAc(b1-3)Gal(b1-4)GlcNAc(b1-2)Man(a1-6)]GalNAc
# How it was run: as §1
# [45] = target: Neu5Ac(a2-6)Gal(b1-4)GlcNAc(b1-3)Gal(b1-4)GlcNAc(b1-3)Gal(b1-4)GlcNAc
# How it was run: as §1
# [46] = target: Neu5Ac(a2-6)Gal(b1-4)GlcNAc(b1-3)Gal(b1-4)GlcNAc(b1-3)Gal(b1-4)GlcNAc(b1-2)Man(a1-3)[Neu5Ac(a2-6)Gal(b1-4)GlcNAc(b1-3)Gal(b1-4)GlcNAc(b1-3)Gal(b1-4)GlcNAc(b1-2)Man(a1-6)]GalNAc
# How it was run: as §1
binder,measurement,setting,value
B1,glycan array binding signal (z-score),[1],1.02
same,glycan array binding signal (z-score),[2],0.167
same,glycan array binding signal (z-score),[3],-0.316
same,glycan array binding signal (z-score),[4],1.56
same,glycan array binding signal (z-score),[5],-0.949
same,glycan array binding signal (z-score),[6],0.621
same,glycan array binding signal (z-score),[7],-0.065
same,glycan array binding signal (z-score),[8],1.51
same,glycan array binding signal (z-score),[9],-0.977
same,glycan array binding signal (z-score),[10],-1.76
same,glycan array binding signal (z-score),[11],1.48
same,glycan array binding signal (z-score),[12],0.403
same,glycan array binding signal (z-score),[13],0.217
same,glycan array binding signal (z-score),[14],0.366
same,glycan array binding signal (z-score),[15],-0.764
same,glycan array binding signal (z-score),[16],0.178
same,glycan array binding signal (z-score),[17],-0.265
same,glycan array binding signal (z-score),[18],-0.779
same,glycan array binding signal (z-score),[19],-1.31
same,glycan array binding signal (z-score),[20],1.92
same,glycan array binding signal (z-score),[21],0.241
same,glycan array binding signal (z-score),[22],0.871
same,glycan array binding signal (z-score),[23],-0.602
same,glycan array binding signal (z-score),[24],0.609
same,glycan array binding signal (z-score),[25],0.273
same,glycan array binding signal (z-score),[26],-0.792
same,glycan array binding signal (z-score),[27],0.162
same,glycan array binding signal (z-score),[28],0.649
same,glycan array binding signal (z-score),[29],-0.766
same,glycan array binding signal (z-score),[30],-0.276
same,glycan array binding signal (z-score),[31],0.849
same,glycan array binding signal (z-score),[32],0.295
same,glycan array binding signal (z-score),[33],0.295
same,glycan array binding signal (z-score),[34],1.12
same,glycan array binding signal (z-score),[35],1.56
same,glycan array binding signal (z-score),[36],0.046
same,glycan array binding signal (z-score),[37],0.82
same,glycan array binding signal (z-score),[38],-0.747
same,glycan array binding signal (z-score),[39],-0.122
same,glycan array binding signal (z-score),[40],0.074
same,glycan array binding signal (z-score),[41],0.348
same,glycan array binding signal (z-score),[42],-0.057
same,glycan array binding signal (z-score),[43],0.296
same,glycan array binding signal (z-score),[44],-0.404
same,glycan array binding signal (z-score),[45],0.41
same,glycan array binding signal (z-score),[46],1.71

# Reformatted: entries from further up.
binder	measurement	setting	value
B1	glycan array binding signal (z-score)	[21]	0.241
same	glycan array binding signal (z-score)	[22]	0.871
